Assay: Heterologous soluble protein expression in E. coli, SDS gel of soluble fraction
Design: key: n, no expression; y, expression; sol, purified protein is soluble; ppt, purified protein precipitates over time
Details: judged by SDS gel electrophoresis of the soluble fraction of a total lysate; T7 expression system in E. coli

Row | Molecule | Soluble Expression
1 | psLacBP11: protein from Pseudomonas stuztzeri (SEQ ID NO: 11, 25, 125) (protein) MKRRHLFGAAALLATLALAGCKDEQSQAPNQQAAGEPAKTYHWKMVTAWPKNYPGLGTSAERLAERVNAMSGGRLTIKVYAAGELVPALEVFDAVSRGTAELGHGASYYWKGKVPTAQFFTSVPFGLSTSEMNAWLSKGGGQAFWDEAYAPFGVKPLVIGNTGMQMGGWYNKEINSLTDLKGLKIRMPGLGGEVLSRLGATTVNLPGGEVFTALQTGAIDATDWVSPYNDLAFGLHKAARYYYYPGWQEPQAVLELLINQKAFDSLPADLQAIVTEASLAASRDMHDDYVYNNALALEQLKQQGTELKRFPDEVLAAMREQSDLILGELAAQSELNGRIWASMKAFQAQVEPMHEISEKELYNWR | y, ppt
2 | tsLacBP2: lactate-binding protein from Thermus scotoductus (SEQ ID NO: 2, 16, 116) (protein, tsLacBP2 (with signal peptide replaced with M)) MFSPLAVAQAPRFRWRIQSAWDAGTVGYSLFQKFAERVKELTDGQIEIQTFPAGAVVGTFDMFDAVKTGVLDGMHPFTLYWAGRMPVTAFLSSYPLGLDRPDQWETWYYGLGGLELARKAYEEQGLFFVGPVQHDYNLIHSKKPIKSFEDFKGVKLRVPGGMIAEIFAAAGAATVLLPGGEVYPALERGVIDAADFVGPAVNYNLGFHQVTKYIIMGPPETPAIHQPVDLADITININRWRALPRNLQERFEAAVHEWSWIHYAGIQKANLETWPKYKAAGVQVIRLSTVDVRKFRRVAIPIWFKWAKQDKYTREAFASQLEYMKALGYVTDADIRGLSL | n
3 | tsLacBP4: lactate-binding protein from Thioalkalivibrio sulfidophilus (SEQ ID NO: 4, 18, 118) (protein, tsLacBP4 (with signal peptide replaced with M)) MTARGVRWRMQSAWQPGTIGYRTFETWARSIQELTSGELSIEPFPAGAVAGTFEMADAVRSGVLDGMNWFTVYWPGKMPAGVFMSAYPMALSLPHHWDMMFDSFGGRQIVDELYDRQGLVFLGHVQHDLNLIHSKVPLRSFDDFRGKRIRFPGGIIAETFAKVGVRTTLLPGGDVYPALERGTIDAADFVGPAVNYDLGFHQVADYIIMGPPSTPALHQPVDLMDISVNKRSWSRISEHTQKLMYKFVKAYSAEHFAAIQKANHEAWPKYKEAGVEVIHLSEEDAARFREAAIPLWFEWANKDRDAARLFKVHLEVMQDPSVAVITPDDIKDYKLNF | n
4 | fsLacBP13: protein from Flexistipes sinusarabici (SEQ ID NO: 13, 27, 127) (protein, listed as Flexistipes sinusarabici) MGMMKKLLYSLLIILLVASAGFTAEKKIRWKLAMTWGPTLHPLSDTAEHMAEIVKELSDGNFVINIDASNVHKAPFGIFDMVKLGQYEMGHTASYYYKGKNIAFLPLTTMPFGMTAPEQYAWFYYGGGLELMQEAYTKHGMLAFPGGNTGNQMGGWFTKEINSLDDLKGLKMRIPGFAGQIMSKLGVTVTNIPPGELYTALERGTVDAVEWTGPGMDINMGFHKIAKYYYTGWHEPGSEVEFLINEKEYNKLPEKYKKILKIAMKTAAYDMYIQSYEMNAEAWQQMKEKYPDIKVKVFPEEVLKEMKTAYDNLVASYEKESPMFKKIMESKRAYLDKVRDWTHISDYLYLKSTSESNLN | y, ppt
5 | tsLacBP7: lactate-binding protein from Thermus sp. (SEQ ID NO: 7, 21, 121) (protein, tsLacBP7 (with signal peptide replaced with M)) MQAPRFRWRIQSAWDAGTVGYTLFQRFAERVKELTDGQIEIQTFPAGAVVGTFDMFDAVKTGVLDGMHPFTLYWAGRMPVTAFLSSYPLGLDRPDQWETWYYALGGLDLARRAFEEQGLFYVGPVQHDYNLIHSKKPIKSFEDFKGVKLRVPGGMIADVFSAAGAATVLLPGGEVYPALERGVIDAADFVGPAVNYNLGFHQVTKYIIMGPPETPAIHQPVDLADITLNLSRWRAVPKNLQERFEAAVHEWSWIHYAGIQKANLETWPKYKAAGVQIIRLTTVDVRKFRRVAIPIWFKWAKQDKYAREAFASQLEYMKALGYVTDADVRGLSL | y, ppt
6 | ttLacBP1: lactate-binding protein from Thermus thermophilus, seed sequence (SEQ ID NO: 1, 15, 115) (protein, listed as Thermus thermophilus) MKRVSRRAFLRRLGVGVAATAAFSPLAVAQARRYRWRIQTAWDAGTVGYSLFQKFTERVKELTDGQLEVQPFPAGAVVGTFDMFDAVKTGVLDGMNPFTLYWAGRMPVTAFLSSYALGLDRPDQWETWFYSLGGLDIARRAFAEQGLFYVGPVQHDLNIIHSKKPIRRFEDFKGVKLRVPGGMIAEVFAAAGASTVLLPGGEVYPALERGVIDAADFVGPAVNYNLGFHQVAKYIIMGPPETPAIHQPVDLMDFTINLNRWRSLPKPLQERFIAAVHEYSWIHYAGIQKANLEAWPKYRQAGVEVIRLSNEDVRKFRRLAIPIWFKWAKMDKYSREAFASQLEYMKGIGYVTDEELKGLSL | y, ppt
7 | rsLacBP12: protein from Rhodobacter sphaeroides (SEQ ID NO: 12, 26, 126) (protein, Rhodobacter sphaeroides) MTAFEKKAAYSRRSFLRTGALAGGAAAGSVLAAPAVLAQAPLVMKMQTSWPASDIWMDFAREYVTRVEEMSGGRIKVDLLPAGAVVGAFQVMDAVHDGVIDASHSVSAYWYGKSKAASFFGTGPVFGGSATTMLGWFYQGGGQDLYRELTQDILGMNIVGFYGFPMPAQPFGWFKTEVNGVADIQGFKYRTVGLAADLLQAMGMSVAQLPGGEIVPAMERGVIDAFEFNNPSSDMRFGAQDVAKNYYLSSYHQASESFEYTFNRDFYEDLDPDLQAILKYAVEAASTSNTALALRQYSADLATLAAENGVAVHRTPKDILSGQLEAWDKLIVDLEADEFFKKVLDSQRAWVEQVSYYELMNAADLGLAYEHHFPGKLKL | y, sol
8 | adLacBP9: protein from Anaeromyxobacter dehalogenans (SEQ ID NO: 9, 23, 123) (protein) MKKTTSRSQPDTAPKASRRSFLKKAALGAAGVAAGAAAPTIHVAQAPITLRFQSTWPQKDIFHEFALDYAKKVNEMSGGRLKIEVLAAGSVVKAFDLLDAVSKGTLDGGHGVVAYWYGKNTALALWGSGPAFGMDPNMVLAWHHYGGGRQLLEEIYRSLNLDVVSLMYGPMPTQPLGWFKQKPIAKPDDMKGLKFRTVGLSIDIFNGLGAAVNALPGAEIVPAMDRGLLDAAEFNNASSDRVLGFPDVSKICMLQSFHQCSEQFEILFNGKRFQALPADLKSIISIAAQAASADMSWKAIDRYSSDYFEMRDKQGVKFYSTRPEILKRQLEIWDQVMEKRAAENPTFKKVLESQRRFAQRAARWQNDTNVDFKMAYNHFFGGKKKAT | y, ppt
9 | pgLacBP10: protein from Polymorphum gilvum (SEQ ID NO: 10, 24, 124) (protein) MTEISRRGLLAGSVFGGVALAAPTVARAQEAVEWRMQALWDAGTTPFEFEKKFVERVGELTEGRFKITLYSAGQIVPANQAFDAVRSGAFEMMKTFDGYEAGKIPAFAFTSTIPFGFPQSDQYEAWFYELGGLDLAREAYAKGGLFYIAPTVYGEEPMHSTVKIESIADMAGKKGRFVGLASAVMADLGVAVSPLATAEVYTALEKGLIDFADRGDLTANYEAGLGEVAKFIILPGVHQPTTATSYVANQAAYQKLPDGFKAALAVAAREISGSLRQHILVQDMEVLTKYKDQGVEVVRLDAADIAAARAKAVESWEKATKGDELATRVLKGQVDFMTSLGLL | y, sol
10 | msLacBP6: lactate-binding protein from Marinobacter sp. (SEQ ID NO: 6, 20, 120) (protein) MTDITCKIETKGSARRRGFLKTLAVSAAISATLLASSVQAATTWKIQSVWDAGTVGYDLFKEWCDGMEEKTGGELKFTCFPAKAVAADNNGLFDAVRNGVLQGMNPFTLYWSGKIPASVFLSSYPAGPDQPHQWDTMFYSLGMLEKTREIYKKFGLFYVGPIQHDANIIHSKQPINSLDDLKGLKMRLPGGMVAEVFAKFGVAAVSLPGSDIFPALEKGTIDAADYVGPAVNWELGFSQVTKYILMGPPGIMSVYQPVDLMDLTVNLRAWNALDPKLQQIVEDEVRIYSQKHYLAIQKRNIEAMKKFEAAGTTVTRLSQEDLQEFRRAAIPIWYSWANKDEDAREIFDMQLEYMMNDTVGYITEDDIKGMN | y, sol

Source: patent publication US11099176B2 (Duke University, priority 2015, dated 2021)
